Data taken from publication PMC3688854.
These are yes or no findings as the source states them, for the method shown. In cells and extracts the contact can be indirect. Some binding calls cover weakened binding; strength is not graded here. Where a sequence is shown, tags or fusion partners need not be part of it.

Target: Arabidopsis bZIP63, BiFC fusions (Arabidopsis) (UniProt B9DGI8)
Assay: split reporter; BiFC with pE-SPYNE/pE-SPYCE constructs coexpressed in N. benthamiana leaves by Agrobacterium infiltration with the p19 silencing plasmid; YFP fluorescence in protoplasts by confocal microscopy

binding: binds
B1: Arabidopsis bZIP63, BiFC fusions (protein, UniProt B9DGI8 1-314)
chain: MEKVFSDEEISGNHHWSVNGMTSLNRSASEWAFNRFIQESSAAADDGESTTACGVSVSSPPNVPVDSEEYRAFLKSKLNLACAAVAMKRGTFIKPQDTSGRSDNGGANESEQASLASSKATPMMSSAITSGSELSGDEEEADGETNMNPTNVKRVKRMLSNRESARRSRRRKQAHLSELETQVSQLRVENSKLMKGLTDVTQTFNDASVENRVLKANIETLRAKVKMAEETVKRLTGFNPMFHNMPQIVSTVSLPSETSNSPDTTSSQVTTPEIISSGNKGKALIGCKMNRTASMRRVESLEHLQKRIRSVGDQ
